Measured values from PubChem BioAssay AID222 (DTP/NCI, 2004).
The list shows only some results of the screen, not a fair sample: it gathers tests that were run many times, whatever their T/C, doses with no T/C, and many T/C values between a quarter and a half above the control. Other doses and runs of a compound stand elsewhere. T/C is the treated group as % of the vehicle group. Some doses have a count of surviving animals in place of a T/C: the source files T/C as zero there, which appears to mark a toxic dose or a test without result, not a measured value. Some doses without a T/C left all or most animals alive at the check, yet need not have been tolerated: survival well below the control is almost never listed, so the zero probably covers shortened survival too. Counts of survivors are from the toxicity check (mostly the fifth day) where no day follows; animals may have died later. Schedule codes are those of the source, taken here to give the interval after Q, in days (D) or hours (H), and the number of doses after X. Some entries hold several experiments; the results are listed from low to high. Some schedules carry Z or #; the key to these is not given. For survival time, this PubChem deposit counts one and a half times the control or more as active, and values a quarter to a half above the control carry no call in these data; other NCI protocols may use other cut-offs. Some T/C values carry the count of animals alive at the toxicity check (mostly the fifth day); without a count, all were alive then.

Test system: C57BL/6 mice, intracerebral ependymoblastoma, median survival T/C
Assay: NCI In Vivo Anticancer Drug Screen. Data for tumor model Ependymoblastoma (intracerebral) in C57BL/6 mice
Settings: T/C endpoint: median survival time, higher T/C = longer survival
Description: The antitumor activity of compounds was measured in mice bearing transplantable tumors. Survival or tumor size were measured and the results are expressed as the measurement made in the treated group (T) divided by the measurement made in the vehicle treated control group (C). The tumor model used in this assay is Ependymoblastoma (intracerebral) in C57BL/6 mice

[1] = dose: 90.0 mg/kg/injection, schedule: Q01DX005 (ip), vehicle: saline with Tween-80
[2] = dose: 360.0 mg/kg/injection, schedule: Q01DX005 (ip), vehicle: saline with Tween-80
[3] = dose: 720.0 mg/kg/injection, schedule: Q01DX005 (ip), vehicle: saline with Tween-80
[4] = dose: 1440.0 mg/kg/injection, schedule: Q01DX005 (ip), vehicle: saline with Tween-80

CCOC(=O)C(CC(C)C)NC(=O)C(Cc1ccc(N(CCCl)CCCl)cc1)NC(C)=O (stereo not given)
T/C (dose: 4.0 mg/kg/injection, schedule: Q01DX005 (ip), vehicle: Klucel (hydroxypropylcellulose) (HPC)): 104, 108, 109 [9 of 10 alive], 110 % of control
T/C (dose: 8.0 mg/kg/injection, schedule: Q01DX005 (ip), vehicle: Klucel (hydroxypropylcellulose) (HPC)): 102, 103, 111, 123 % of control
T/C (dose: 16.0 mg/kg/injection, schedule: Q01DX005 (ip), vehicle: Klucel (hydroxypropylcellulose) (HPC)): 104, 106, 113, 115 % of control
T/C (dose: 16.0 mg/kg/injection, schedule: Q01DX005 (ip), vehicle: saline with Tween-80): 126 % of control
T/C (dose: 32.0 mg/kg/injection, schedule: Q01DX005 (ip), vehicle: Klucel (hydroxypropylcellulose) (HPC)): 97, 114, 118, 129 % of control
survivor count (dose: 64.0 mg/kg/injection, schedule: Q01DX005 (ip), vehicle: Klucel (hydroxypropylcellulose) (HPC)): 8 of 10 and 10 of 10
survivor count (dose: 64.0 mg/kg/injection, schedule: Q01DX005 (ip), vehicle: saline with Tween-80): 9 of 10
survivor count (dose: 128.0 mg/kg/injection, schedule: Q01DX005 (ip), vehicle: Klucel (hydroxypropylcellulose) (HPC)): 0 of 10
survivor count (dose: 128.0 mg/kg/injection, schedule: Q01DX005 (ip), vehicle: saline with Tween-80): 7 of 10 and 8 of 10
survivor count (dose: 256.0 mg/kg/injection, schedule: Q#A X002 (ip), vehicle: Klucel (hydroxypropylcellulose) (HPC)): 0 of 10
survivor count (dose: 512.0 mg/kg/injection, schedule: Q01DX001 (ip), vehicle: Klucel (hydroxypropylcellulose) (HPC)): 6 of 10

O=NN(CCCl)C(=O)NC1CCCCC1
T/C (dose: 2.5 mg/kg/injection, schedule: Q01DX001 (ip), vehicle: Klucel (hydroxypropylcellulose) (HPC)): 96, 107, 107 [7 of 10 alive], 113 % of control [6 of 10 alive]
T/C (dose: 5.0 mg/kg/injection, schedule: Q01DX001 (ip), vehicle: Klucel (hydroxypropylcellulose) (HPC)): 102 [6 of 10 alive], 105 [8 of 10 alive], 113, 119 % of control
T/C (dose: 10.0 mg/kg/injection, schedule: Q01DX001 (ip), vehicle: Klucel (hydroxypropylcellulose) (HPC)): 105 [7 of 10 alive], 106 [8 of 10 alive], 122, 138 % of control
T/C (dose: 20.0 mg/kg/injection, schedule: Q01DX001 (ip), vehicle: Klucel (hydroxypropylcellulose) (HPC)): 101 [6 of 10 alive], 124 [7 of 10 alive], 220, 300 % of control
T/C (dose: 40.0 mg/kg/injection, schedule: Q01DX001 (ip), vehicle: Klucel (hydroxypropylcellulose) (HPC)): 110 [9 of 10 alive], 169 [6 of 10 alive], 286, 301 % of control
survivor count (dose: 64.0 mg/kg/injection, schedule: Q01DX005 (oral), vehicle: Klucel (hydroxypropylcellulose) (HPC)): 10 of 10
T/C (dose: 128.0 mg/kg/injection, schedule: Q01DX001 (ip), vehicle: Klucel (hydroxypropylcellulose) (HPC)): 130 % of control
survivor count (dose: 128.0 mg/kg/injection, schedule: Q01DX005 (oral), vehicle: Klucel (hydroxypropylcellulose) (HPC)): 10 of 10

ClC1=C(Cl)C2(Cl)C3C(Cl)C(Cl)CC3C1(Cl)C2(Cl)Cl (stereo not given)
survivor count [1]: 1 of 10 and 4 of 10
survivor count (dose: 180.0 mg/kg/injection, schedule: Q01DX005 (ip), vehicle: saline with Tween-80): 0 of 10 and 1 of 10
survivor count [2]: 0 of 10
survivor count [3]: 0 of 10
survivor count [4]: 0 of 10

NC(=O)N(CCCl)N=O
T/C (dose: 1.0 mg/kg/injection, schedule: Q01DX005 (ip), vehicle: saline + alcohol): 144 % of control
survivor count (dose: 4.0 mg/kg/injection, schedule: Q01DX005 (ip), vehicle: saline + alcohol): 10 of 10
survivor count (dose: 8.0 mg/kg/injection, schedule: Q01DX005 (ip), vehicle: saline + alcohol): 10 of 10
survivor count (dose: 16.0 mg/kg/injection, schedule: Q01DX005 (ip), vehicle: saline + alcohol): 5 of 10

O=NN(CCF)C(=O)NC1CCCCC1
survivor count (dose: 40.0 mg/kg/injection, schedule: Q01DX005 (ip), vehicle: suspension in saline): 1 of 10
survivor count (dose: 80.0 mg/kg/injection, schedule: Q01DX005 (ip), vehicle: suspension in saline): 0 of 10
survivor count (dose: 160.0 mg/kg/injection, schedule: Q01DX005 (ip), vehicle: suspension in saline): 0 of 10

CCOC(=O)CC(SP(=S)(OC)OC)C(=O)OCC (stereo not given)
survivor count [2]: 2 of 10 and 5 of 10
survivor count (dose: 400.0 mg/kg/injection, schedule: Q01DX005 (ip), vehicle: suspension in saline): 5 of 10

COc1cc2c(c(OC)c1OC)-c1ccc(OC)c(=O)cc1[C@@H](NC(C)=O)CC2
survivor count (dose: 1.6 mg/kg/injection, schedule: Q01DX005 (ip), vehicle: saline): 4 of 10

N=c1ccn2c(n1)OC1C(O)C(CO)OC12 (stereo not given)
survivor count (dose: 400.0 mg/kg/injection, schedule: Q01DX005 (ip), vehicle: saline): 10 of 10
survivor count (dose: 800.0 mg/kg/injection, schedule: Q01DX005 (ip), vehicle: saline): 8 of 10 and 10 of 10
T/C (dose: 1600.0 mg/kg/injection, schedule: Q01DX001 (ip), vehicle: saline): 126 % of control [7 of 10 alive]
survivor count (dose: 1600.0 mg/kg/injection, schedule: Q01DX005 (ip), vehicle: saline): 7 of 10

Nc1ccc(S(=O)(=O)c2ccc(N)cc2)cc1
survivor count [2]: 4 of 10 and 5 of 10
survivor count [3]: 1 of 10 and 8 of 10

CC[n+]1c(-c2ccccc2)c2cc(N)ccc2c2ccc(N)cc21
survivor count (dose: 24.0 mg/kg/injection, schedule: Q01DX005 (ip), vehicle: saline): 10 of 10
survivor count (dose: 48.0 mg/kg/injection, schedule: Q01DX005 (ip), vehicle: saline): 6 of 10
survivor count (dose: 96.0 mg/kg/injection, schedule: Q01DX005 (ip), vehicle: saline): 0 of 10

O=C(N[C@H](CO)[C@H](O)c1ccc([N+](=O)[O-])cc1)C(Cl)Cl
survivor count [1]: 9 of 10
survivor count [3]: 5 of 10
survivor count [4]: 0 of 10

[N-]=[N+]=CC(=O)CCC(N)C(=O)O (stereo not given)
survivor count (dose: 0.05 mg/kg/injection, schedule: Q01DX005 (ip), vehicle: saline): 9 of 9
survivor count (dose: 0.1 mg/kg/injection, schedule: Q01DX005 (ip), vehicle: saline): 10 of 10
survivor count (dose: 0.2 mg/kg/injection, schedule: Q01DX005 (ip), vehicle: saline): 9 of 10
survivor count (dose: 0.4 mg/kg/injection, schedule: Q01DX005 (ip), vehicle: saline): 8 of 10 and 10 of 10
survivor count (dose: 0.8 mg/kg/injection, schedule: Q01DX005 (ip), vehicle: saline): 8 of 10

CCN(CC)CCCC(C)Nc1c2ccc(Cl)cc2nc2ccc(OC)cc12 (stereo not given)
survivor count (dose: 128.0 mg/kg/injection, schedule: Q01DX005 (ip), vehicle: saline): 9 of 10
survivor count (dose: 256.0 mg/kg/injection, schedule: Q01DX005 (ip), vehicle: saline with Tween-80): 5 of 10
survivor count (dose: 256.0 mg/kg/injection, schedule: Q01DX005 (ip), vehicle: saline): 0 of 10
survivor count (dose: 512.0 mg/kg/injection, schedule: Q01DX005 (ip), vehicle: saline with Tween-80): 0 of 10
